# Some of the results follow. Further columns of the screen follow, without active or inactive calls. Compounds called inactive in the main read-out are mostly missing here. Potencies come from curve fits of mixed quality, noted in brackets.
# Assay: IkB Signaling
# Conditions: ABC-DLBCL IkBa-CBG/CBR dual luciferase ratio (green luciferase fused to IkBa over red control in OCI-Ly3 lymphoma cells), 4 h
# In short: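 Luminescence ratio of IκBα-fused green versus native red beetle luciferase in OCI-Ly3 cells, 4 h post-doxycycline with compound; red signal alone, scaled from basal (0%) to zero light (-100%), flagged nonspecific or cytotoxic effects.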
# [1] = measured here: control luc red channel unless noted
# [2] = measured here: IkB-luc green channel
# [3] = measured here: control luc red channel
structure (smiles),measurement,setting,value
c1ccc2c3c([nH]c2c1)-c1[nH]ncc1CC3,AC50,[1],"25.1 µM [falling, single point]"
O=C(c1ccc2c(c1)N(Cc1ccccc1F)C(=O)c1ccccc1S2(=O)=O)N1CCCC1,AC50,[1],"31.6 µM [falling, single point]"
O=C(NCC(c1cccnc1)N1CCc2ccccc21)c1cccc(C(F)(F)F)c1 (stereo not given),AC50,[1],"15.8 µM [falling, partial curve]"
CCCNC(=O)CSc1nc2nc(C)c(Cc3ccccc3Cl)c(C)n2n1,AC50,[1],"1.58 µM [falling, full curve]"
O=C(NCc1ccco1)c1cnn2c(C(F)(F)F)cc(-c3ccccc3)nc12,AC50,[1],"12.6 µM [falling, partial curve]"
Brc1ccc(CSc2nnc(Cc3c[nH]c4ccccc34)o2)cc1,AC50,[1],"10 µM [falling, partial curve]"
COc1ccc(CCCc2nnc(SCC(=O)Nc3ccc(C)cc3C)o2)cc1,AC50,[1],"12.6 µM [falling, partial curve]"
COc1ccc(-c2cc(C(=O)OC(C)C(=O)c3ccccc3)c3cccc(Cl)c3n2)cc1 (stereo not given),AC50,[1],"20 µM [falling, partial curve]"
c1ccc(Nc2c(-c3c[nH]c4ccccc34)nc3ccccn23)cc1,AC50,[1],"0.0126 µM [falling, full curve]"
CCOC(=O)CC(=O)CSc1ncnc2c1cnn2-c1ccccc1,AC50,[1],"15.8 µM [falling, partial curve]"
CC(C)Nc1ccc(-c2nc(-c3ccco3)no2)cc1[N+](=O)[O-],AC50,[1],"0.00501 µM [rising, full curve, poor fit]"
Cc1ccc2nc(N3CCC(C(=O)N4CCN(c5cccc(Cl)c5)CC4)CC3)[nH]c2c1,AC50,[1],"39.8 µM [falling, single point]"
COc1cc(C(=O)NCC(c2cccs2)S(=O)(=O)c2ccc(F)cc2)cc(OC)c1OC (stereo not given),AC50,[2],"3.16 µM [rising, partial curve]"
same,AC50,[3],"3.16 µM [rising, partial curve]"
CCOC(=O)c1c(C)[nH]c(CCC(=O)Nc2ccc(C)c(F)c2)c1C,AC50,[1],"20 µM [falling, partial curve]"
Cc1ccccc1-c1noc(-c2ccc(O)cc2)n1,AC50,[1],"20 µM [falling, single point]"
Cc1cccc(OCC(=O)Nc2ccc(Cl)c(-c3nc4ncccc4o3)c2)c1C,AC50,[1],"6.31 µM [falling, partial curve]"
Cc1ccc(-n2ncc(C(=O)NCc3cccs3)c2C2CCN(C(=O)OC(C)(C)C)CC2)c(C)c1,AC50,[1],"31.6 µM [falling, single point]"
O=C(NCc1ccccc1Cl)c1ccc(CSCc2ccccc2Cl)o1,AC50,[1],"25.1 µM [falling, single point]"
COc1ccc(OC)c(NC(=O)CSc2nnc3ccc4ccccc4n23)c1,AC50,[1],"12.6 µM [falling, single point]"
Cc1cccc2cc(CN(Cc3ccco3)S(=O)(=O)c3ccc4c(c3)OCCO4)c(=O)[nH]c12,AC50,[1],"15.8 µM [falling, partial curve]"
Cc1ccc(-c2nnc(Nc3cccc(O)c3)c3ccccc23)cc1S(=O)(=O)N1CCOCC1,AC50,[1],"15.8 µM [falling, partial curve]"
CCc1ccc(NC(=O)CCn2nc(-c3ccccc3OC)c3c(C)cc(C)nc32)cc1,AC50,[1],"12.6 µM [falling, partial curve]"
COc1ccc(-c2cn3c(C)c(C(=O)Nc4cc(NC(C)=O)ccc4OC)sc3n2)cc1,AC50,[1],"1.58 µM [falling, full curve]"
CCC(c1nnnn1Cc1ccco1)N(Cc1ccccc1OC)Cc1cc2cc(C)ccc2[nH]c1=O (stereo not given),AC50,[1],"15.8 µM [falling, partial curve]"
COC(=O)c1scc(-c2ccc(C)cc2)c1S(=O)(=O)N1CCN(c2cccc(OC)c2)CC1,AC50,[1],"3.98 µM [falling, full curve, poor fit]"
Fc1ccc(Nc2c3c(nc4ccccc24)CCC3)cc1,AC50,[1],"25.1 µM [falling, single point]"
Cc1ccc(Sc2c(C)nn(C(C)(C)C)c2OC(=O)C(C)(C)C)cc1,AC50,[1],"20 µM [falling, partial curve]"
O=C(NCc1ccco1)c1ccc2c(c1)N(Cc1ccc(Cl)cc1)C(=O)c1ccccc1S2=O (stereo not given),AC50,[1],"3.98 µM [falling, partial curve]"
CCN(C(=O)C1CCCN(S(=O)(=O)c2c(C)noc2/C=C/N(C)C)C1)c1cccc(C)c1 (stereo not given),AC50,[1],"31.6 µM [falling, single point]"
CCN(c1ccccc1)c1nnc(NC(=O)Nc2ccccc2F)s1,AC50,[1],"15.8 µM [falling, partial curve]"
O=C1CC(c2ccc3c(c2)OCO3)Sc2nc3ccccc3n21 (stereo not given),AC50,[1],"0.2 µM [falling, full curve]"
Cc1nc(Oc2ccc(F)cc2Cl)c2oc3ccccc3c2n1,AC50,[1],"39.8 µM [falling, single point]"
O=C(CN1C(=O)COc2ccccc21)Nc1ccc(F)cc1,AC50,[1],"0.02 µM [falling, full curve]"
CCC(=O)N1CCc2cc(Br)cc(S(=O)(=O)CCC(=O)NCc3ccc(Cl)cc3)c21,AC50,[1],"20 µM [falling, partial curve]"
CC1(C)CC(NC(=O)CC2CCCCC2)CC(C)(C)N1,AC50,[1],"7.94 µM [falling, partial curve]"
CCOc1ccccc1NC(=O)CN(C)S(=O)(=O)c1ccc2nc(C)sc2c1,AC50,[1],"39.8 µM [falling, single point]"
CSC1=NC2(CCN(C(=O)NC3CCCCC3)CC2)N=C1c1ccc(C)c(C)c1,AC50,[1],"15.8 µM [falling, partial curve]"
Cc1ccc(C)c(NC(=O)CN2C(=O)C(C)(C)c3ccccc32)c1,AC50,[1],"7.94 µM [rising, partial curve, poor fit]"
COc1ccc(Br)cc1CNC(=O)c1cc2n(n1)CCCN(Cc1ccc(C)cc1)C2=O,AC50,[1],"12.6 µM [falling, partial curve]"
CCOC(=O)CCc1c(C)nc2cc(-c3ccccc3OC)[nH]n2c1=O,AC50,[1],"3.16 µM [falling, full curve]"
O=C(Nc1sc2c(c1C(=O)NCc1ccco1)CCCC2)c1cc(=O)c2ccccc2o1,AC50,[2],"39.8 µM [rising, single point]"
same,AC50,[3],"5.01 µM [falling, partial curve]"
COc1cc(NC(=O)Cn2c(=O)n(Cc3ccco3)c(=O)c3sc4ccccc4c32)cc(OC)c1,AC50,[1],"31.6 µM [falling, partial curve]"
COCCCNc1oc(/C=C/c2cc(OC)c(OC)c(OC)c2)nc1C#N,AC50,[1],"25.1 µM [falling, single point]"
Cc1ccc(N2CCN(C(=O)c3c(C)oc4ncn(CC(C)C)c(=O)c34)CC2)c(C)c1,AC50,[1],"25.1 µM [falling, partial curve, poor fit]"
Cc1ccc(C)c(N2CCN(C(=O)C3CCN(c4nc5ccc(C)cc5[nH]4)CC3)CC2)c1,AC50,[1],"39.8 µM [falling, single point]"
CCC(C)NC(=O)c1cc(-c2cccc(OC)c2)on1 (stereo not given),AC50,[1],"3.16 µM [falling, full curve]"
Cc1cc(-c2ccc(C)c(S(=O)(=O)N3CCN(c4cccc(C(F)(F)F)c4)CC3)c2)on1,AC50,[1],"2.51 µM [falling, full curve, poor fit]"
Cc1ccc(Oc2c(C(F)(F)F)oc3c(CN4CCC(C)CC4)c(O)ccc3c2=O)cc1,AC50,[1],"15.8 µM [falling, partial curve]"
CCOc1ccc(C(=O)CCN2CCCCCC2)cc1,AC50,[2],"25.1 µM [falling, single point]"
same,AC50,[3],"7.94 µM [falling, full curve]"
Cc1ccc(S(=O)(=O)Nc2cc3c(cc2NCc2ccccc2)n(C)c(=O)n3C)c(C)c1,AC50,[1],"31.6 µM [falling, single point]"
O=C(CCC1N=C2c3ccccc3N=C(SCc3ccc(F)cc3)N2C1=O)NCc1ccc(F)cc1 (stereo not given),AC50,[1],"7.94 µM [falling, partial curve]"
COc1ccc(-c2cc3nc(C)c(CCC(=O)Nc4ccccc4C(C)=O)c(C)n3n2)c(OC)c1,AC50,[1],"0.0501 µM [falling, full curve]"
Cc1cccc(Cn2c(SCc3ccc(C(=O)NCCc4ccccc4)cc3)nc3ccncc32)c1,AC50,[1],"7.94 µM [falling, partial curve]"
CCc1cccc(C)c1NC(=O)Cn1ccn(-c2cccc(OC)c2)c(=O)c1=O,AC50,[1],"31.6 µM [falling, single point]"
O=C(CSCc1cccc(F)c1)NCc1ccccc1,AC50,[1],"0.0794 µM [rising, full curve]"
CCCC1=Nc2cc(C(=O)NCc3ccc(OC)cc3)ccc2Sc2ccc(C)cc21,AC50,[1],"7.94 µM [falling, partial curve]"
Cc1ccc(S(=O)(=O)Nc2ccccc2C(=O)c2ccc(C)c(C)c2)cc1,AC50,[1],"3.16 µM [falling, partial curve]"
CCOc1ccc(-c2nc(CSCC(=O)N3CCN(c4ccc(F)cc4)CC3)c(C)o2)cc1,AC50,[1],"39.8 µM [falling, single point]"
O=C1NC(Nc2nc3ccccc3s2)(C(F)(F)F)C(=O)N1C1CCCCC1 (stereo not given),AC50,[1],"7.94 µM [falling, partial curve]"
CCOc1ccc(C(=O)Nc2ccc3nc(SCCOc4ccccc4)sc3c2)cc1,AC50,[1],"0.1 µM [falling, full curve]"
CC(=O)c1cccc(NC(=O)Cn2nc(C)n3cccc3c2=O)c1,AC50,[1],"10 µM [falling, partial curve]"
CC(=O)N1CCCc2cc(S(=O)(=O)N3CCC(C(=O)Nc4cccc(Cl)c4C)CC3)ccc21,AC50,[1],"0.2 µM [falling, full curve, poor fit]"

# Looked up one by one from the entries so far, 2 records:
structure (smiles),measurement,setting,value
O=C1CC(c2ccc3c(c2)OCO3)Sc2nc3ccccc3n21 (stereo not given),AC50,[1],"0.2 µM [falling, full curve]"
Fc1ccc(Nc2c3c(nc4ccccc24)CCC3)cc1,AC50,[1],"25.1 µM [falling, single point]"

# — PubChem BioAssay AID445 (National Center for Advancing Translational Sciences (NCATS), 2006)
